From PMC5570293 come the findings set out here.

These are yes or no findings as the source states them, for the method shown. In cells and extracts the contact can be indirect. For part of these data: Binding can be weak; no strength is given. Where a sequence is shown, tags or fusion partners need not be part of it.

Test in all cases: co-IP; S2 cells cotransfected with UAS plasmids and actC5-GAL4, 72 h expression; immunoprecipitation with rabbit anti-GFP antibodies; Western blots with anti-GFP, anti-FLAG or anti-HA
Experiment [1] concerns the target T1, Mfap1-GFP (C-terminally GFP-tagged full length Mfap1, 1-478) (Drosophila) (UniProt Q9W062).
T1 sequence: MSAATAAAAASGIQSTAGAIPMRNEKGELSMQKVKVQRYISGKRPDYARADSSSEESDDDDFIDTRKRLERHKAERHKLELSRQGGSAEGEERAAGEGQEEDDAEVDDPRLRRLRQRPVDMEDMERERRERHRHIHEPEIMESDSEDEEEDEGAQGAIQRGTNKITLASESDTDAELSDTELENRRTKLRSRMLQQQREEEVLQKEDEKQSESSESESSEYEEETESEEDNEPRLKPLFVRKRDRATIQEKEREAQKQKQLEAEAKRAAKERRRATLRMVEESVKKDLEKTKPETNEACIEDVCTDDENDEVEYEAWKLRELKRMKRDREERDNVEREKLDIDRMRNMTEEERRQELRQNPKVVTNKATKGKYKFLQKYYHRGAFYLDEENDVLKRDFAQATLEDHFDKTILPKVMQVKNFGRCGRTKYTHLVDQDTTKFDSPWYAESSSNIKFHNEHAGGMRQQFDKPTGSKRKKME

In experiment [2] the target is T2, GFP-Mfap1^1-229 (Drosophila) (UniProt Q9W062).
T2 sequence: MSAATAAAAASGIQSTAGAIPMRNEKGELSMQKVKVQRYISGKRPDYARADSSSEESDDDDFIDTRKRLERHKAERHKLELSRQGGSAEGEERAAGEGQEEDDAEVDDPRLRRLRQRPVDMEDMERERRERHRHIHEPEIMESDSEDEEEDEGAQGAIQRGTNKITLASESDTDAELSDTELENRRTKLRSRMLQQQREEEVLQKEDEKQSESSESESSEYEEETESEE

Experiment [3] concerns the target T3, GFP-Mfap1^230-478 (Drosophila) (UniProt Q9W062).
T3 sequence: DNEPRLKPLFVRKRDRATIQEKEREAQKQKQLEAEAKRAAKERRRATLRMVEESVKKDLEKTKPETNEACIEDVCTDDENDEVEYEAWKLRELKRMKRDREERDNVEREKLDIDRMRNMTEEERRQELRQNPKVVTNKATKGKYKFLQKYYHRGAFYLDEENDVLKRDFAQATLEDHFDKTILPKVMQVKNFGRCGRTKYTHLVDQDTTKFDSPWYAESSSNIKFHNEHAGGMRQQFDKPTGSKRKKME

As to “FLAG-tagged dominant-negative VCP QQ (ATPase-dead VCP carrying mutations E335Q, E575Q) (Drosophila)”, the binding entry in experiment [1] is on record as “binds”; in experiment [2], “binds”; in experiment [3], “no binding”.
